# From the supplement of paper PMC8166895
# Where a name gives a salt, the structure may show the parent alone. The list shows a part of the results. Most entries show no effect beyond the scatter of the controls.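 Differential scanning fluorimetry gave melting temperatures in a one-replicate pilot screen of a library of approved drugs plus clinical or known-target compounds. Hits increasing melting point at least 2 °C were the strongest stabilizers, while negative shifts signify destabilization.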 Where a SMILES comes first, the peptide text is derived from it. [ ]: non-standard residue; d: D form.
# Test system: SARS-CoV-2 main protease (Mpro, nsp5)
# Test: thermal shift ΔTm of Mpro relative to plate average Tm; higher = stronger thermal stabilization of Mpro (binding)
# Settings: 10 µM; protein concentration 1 µM
row,Structure (SMILES),thermal shift ΔTm of Mpro [°C]
1,O=C1Cc2c([nH]c3ccc(Br)cc23)-c2ncccc2N1 [1-Azakenpaullone],-0.0343
2,Oc1cc(O)c(Cl)cn1 [Gimeracil],0.153
3,COc1ccc(N2C(=O)/C(=C\c3ccc([N+](=O)[O-])s3)SC2=S)cc1,0.0066
4,CC[C@@H]1/C=C(\C)C[C@H](C)C[C@H](OC)[C@H]2O[C@@](O)(C(=O)C(=O)N3CCCC[C@H]3C(=O)O[C@H](/C(C)=C/[C@@H]3CC[C@@H](O)[C@H](OC)C3)[C@H](C)[C@@H](O)CC1=O)[C@H](C)C[C@@H]2OC [Ascomycin (FK520)],-0.257
5,Cn1cc(-c2[nH]c3cc(NC(=O)[C@H](N)C4CCCCC4)cc4c3c2C=NNC4=O)cn1,0.091
6,CC1(C)CNc2cc(NC(=O)c3cccnc3NCc3ccncc3)ccc21 [Motesanib],0.048
7,CC1(C)CNc2cc(NC(=O)c3cccnc3NCc3ccncc3)ccc21 [Motesanib Diphosphate (AMG-706)],-0.12
8,CC(=O)N[C@H](Cc1ccc(O)cc1)C(=O)N[C@H](CCCN=C(N)N)C(=O)N[C@H](Cc1ccccc1)C(N)=O (Ac-[dY]-[dR]-[dF]-NH2),-0.267
9,O=C1CCc2ccc(OCCCCN3CCN(c4cccc(Cl)c4Cl)CC3)cc2N1 [Aripiprazole],0.0388
10,CN(C)CCOC(c1ccc(Cl)cc1)c1ccccn1 (configuration not stated) [Carbinoxamine Maleate Salt],0.286
11,O=C(O)CNC(=O)c1nc(Cl)c2ccccc2c1O,0.165
12,CCC(Sc1nnc2c(n1)[nH]c1ccccc12)C(=O)N1c2ccccc2Sc2ccccc21 (configuration not stated) [Inauhzin],0.0527
13,NCCCC(N)(C(=O)O)C(F)F (configuration not stated) [Eflornithine hydrochloride Monohydrate],0.105
14,CCCCCCCCCCCC1=C(O)C(=O)C=C(O)C1=O [Embelin],0.601
15,COc1c2ccoc2cc2oc(=O)ccc12 [Bergapten],-0.119
16,Cc1ccc(-c2nnc(NC(=O)c3ccc(Br)s3)o2)cc1,-0.0199
17,CNCc1cc(-c2ccccc2F)n(S(=O)(=O)c2cccnc2)c1,-0.153
18,c1ccc(CCCN2CCN(CCOC(c3ccccc3)c3ccccc3)CC2)cc1,0.0109
19,Cc1nn(C)c2c1C(c1ccc(C(F)(F)F)cc1)C(C#N)=C(N)O2 (configuration not stated),-0.12
20,Cc1ccccc1C(OCCN(C)C)c1ccccc1 (configuration not stated) [Orphenadrine Citrate],0.0589
21,C[C@H](CSC(=O)c1ccccc1)C(=O)N1C[C@@H](Sc2ccccc2)C[C@H]1C(=O)O [Zofenopril (calcium)],0.285
22,CN1CCOC(c2ccccc2)c2ccccc2C1 (configuration not stated) [Nefopam hydrochloride],0.046
23,CN1CCC(=C2c3ccccc3CCc3sccc32)CC1 [Pizotifen],0.119
24,CN1CCC(=C2c3ccccc3CCc3sccc32)CC1 [Pizotifen Malate],0.121
25,COc1cc2ncnc(Oc3ccc(CC(=O)Nc4cnn(C(C)C)c4)cc3)c2cc1OC,-0.0695
26,COc1ncc(-c2ccc3nccc(-c4ccnnc4)c3c2)cc1NS(=O)(=O)c1ccc(F)cc1F,0.305

# Two records drawn at random from those above:
row,Structure (SMILES),thermal shift ΔTm of Mpro [°C]
15,COc1c2ccoc2cc2oc(=O)ccc12 [Bergapten],-0.119
4,CC[C@@H]1/C=C(\C)C[C@H](C)C[C@H](OC)[C@H]2O[C@@](O)(C(=O)C(=O)N3CCCC[C@H]3C(=O)O[C@H](/C(C)=C/[C@@H]3CC[C@@H](O)[C@H](OC)C3)[C@H](C)[C@@H](O)CC1=O)[C@H](C)C[C@@H]2OC [Ascomycin (FK520)],-0.257

# Remaining list, next part.

row,Structure (SMILES),thermal shift ΔTm of Mpro [°C]
1,CCN(CC)CCOc1ccc(C(=C(Cl)c2ccccc2)c2ccccc2)cc1 [Clomifene citrate],-0.0819
2,C=C[C@@H]1C[C@]1(NC(=O)[C@@H]1C[C@@H]2CN1C(=O)[C@H](C(C)(C)C)NC(=O)O[C@@H]1C[C@H]1CCCCCc1nc3ccc(OC)cc3nc1O2)C(=O)NS(=O)(=O)C1CC1 [Grazoprevir],-0.0785
3,CCC1=C[C@H]2CN3CCc4c([nH]c5ccccc45)[C@](C(=O)OC)(C2)[C@H]13 [Catharanthine],-0.134
4,C[C@]1(COc2ccc(N3CCC(Oc4ccc(OC(F)(F)F)cc4)CC3)cc2)Cn2cc([N+](=O)[O-])nc2O1 [Delamanid],0.105
5,CCCCNc1ccc(C(=O)OCCN(C)C)cc1 [Tetracaine HCl],-0.0444
6,CCCCCOC(=O)Nc1nc(=O)n([C@@H]2O[C@H](C)[C@@H](O)[C@H]2O)cc1F [Capecitabine],0.0383
7,COc1ccc2cc(-c3nc(-c4ccc([S+](C)[O-])cc4)[nH]c3-c3ccncc3)ccc2c1 (configuration not stated) [Tie2 kinase inhibitor],-0.26
8,Nc1ncnc2c1C(=O)N(c1ccc([C@H]3CC[C@H](CC(=O)O)CC3)cc1)CCO2,-0.0283
9,Cc1ncc(COP(=O)(O)O)c(C=O)c1O [Pyridoxal phosphate],-0.00245
10,CC(O)(P(=O)(O)O)P(=O)(O)O [Etidronate],0.104
11,CC(O)(P(=O)(O)O)P(=O)(O)O [Sodium etidronate],0.126
12,CNCC(O)c1ccc(O)cc1 (configuration not stated) [Synephrine HCl],-0.111
13,CNCC(O)c1ccc(O)cc1 (configuration not stated) [Synephrine],-0.0728
14,FC(F)(F)c1ccc(CNc2ccc(Cc3c[nH]c4ncc(Cl)cc34)cn2)cc1,0.159
15,Cc1cc(-c2ncc(CC(=O)Nc3ccc(-c4cnccn4)cn3)cc2C)ccn1,0.0102
16,O=C(O)COCCN1CCN([C@H](c2ccccc2)c2ccc(Cl)cc2)CC1 [Levocetirizine],0.129
17,Cc1cnc(C(=O)NCCc2ccc(S(=O)(=O)NC(=O)NC3CCCCC3)cc2)cn1 [Glipizide],-0.114
18,CN1CCC(NC(=O)c2cc(-c3c(O)cc(O)cc3Oc3ccc([N+](=O)[O-])cc3)on2)CC1,0.388
19,CC1=C(/C=C/C(C)=C/C=C/C(C)=C/C(=O)Nc2ccc(O)cc2)C(C)(C)CCC1=O [4-Oxofenretinide],0.041
20,c1cc(-c2cnn3cc(-c4ccc(OCCN5CCCCC5)cc4)cnc23)ccn1 [Dorsomorphin],-0.00235
21,O=C1[C@H](CC[C@H](O)c2ccc(F)cc2)[C@@H](c2ccc(O)cc2)N1c1ccc(F)cc1 [Ezetimibe],0.0143
22,CCN1C(=CC(C)=O)Sc2ccc(OC)cc21,-0.0978
23,CC(C)Cc1ccc(-c2nc(-c3ccc(CN4CC(C(=O)O)C4)c(F)c3)no2)cc1 [S1p-receptor-agonist-1],0.0707
24,CC(C)NCC(O)c1cc(O)cc(O)c1 (configuration not stated) [Orciprenaline sulfate],0.211
25,CN1CCc2cc3c(cc2C1O)OCO3 (configuration not stated) [Hydrastinine hydrochloride],0.185
26,O=C1/C(=C/c2ccc(O)cc2)Oc2cc(O)ccc21 [Hispidol],0.266
